Results are given in words; binding and its absence hold for the method and conditions named. Binding can be weak; no strength is given.
Molecular target: deglycosylated human sFlt-1 (human)
Assay: size exclusion chromatography of the mixture

B1: anti-Flt-1 antibody 21B3 (antibody, V domains shown)
VH: ELQLVESGGGLVQPGGSLRLSCAASGFTFRDYSMSWVRQAPGKGLEWVSAISWNGDSTYYAESMKGRFTISRDNAKNTLYLQMNSLKSEDTAVYYCAKSWATPIESLYYYGMDYWGKGTLVTVSS
VL: SYELTQSPSVSVALRQTAKITCGGNNIGSQTAQWYQQKPGQAPVLVIYANNRRPSGIPERFSGSKSGNTATLTISGAQAEDEADYYCQVWDGSTQAIVFGGGTHLTVL
notes: VL is LC_21B3; IgG with wild-type Fc; also called 21B3 WT; clone 21B3
binding: binds

From patent US20180072806A1 (SHIRE HUMAN GENETIC THERAPIES, published 2018)
